Experimental data as given in publication PMC4619689.
No constants are given. Whether binding was seen depends on the method and setting. Binding seen in cells or lysates may run through a third protein. A result given as binding can be weak or reduced; the word gives no strength.

Protein sequences, listed by entry. Tags and fused reporters are not part of them. Lines headed by an entry give the natural chain unless they say otherwise; changes in a name come on top.
UniProt Q5ZJC3: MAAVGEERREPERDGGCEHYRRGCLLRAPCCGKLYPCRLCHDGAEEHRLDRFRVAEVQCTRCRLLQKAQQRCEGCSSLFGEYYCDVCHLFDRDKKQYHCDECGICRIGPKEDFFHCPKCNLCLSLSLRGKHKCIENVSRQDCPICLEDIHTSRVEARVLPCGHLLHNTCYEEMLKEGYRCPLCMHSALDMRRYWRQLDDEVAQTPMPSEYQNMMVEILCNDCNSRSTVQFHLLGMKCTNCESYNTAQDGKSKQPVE
UniProt Q08727: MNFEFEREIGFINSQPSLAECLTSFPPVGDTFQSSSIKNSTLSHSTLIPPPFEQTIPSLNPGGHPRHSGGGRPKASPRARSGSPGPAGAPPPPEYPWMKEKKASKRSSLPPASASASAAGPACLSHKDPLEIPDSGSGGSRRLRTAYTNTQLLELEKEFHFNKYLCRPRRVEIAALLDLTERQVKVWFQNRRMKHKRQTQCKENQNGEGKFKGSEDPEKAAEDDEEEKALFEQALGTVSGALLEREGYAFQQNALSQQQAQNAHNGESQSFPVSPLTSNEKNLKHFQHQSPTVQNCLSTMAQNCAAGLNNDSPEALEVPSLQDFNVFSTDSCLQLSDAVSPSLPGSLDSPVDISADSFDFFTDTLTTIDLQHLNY

Molecular target: Rchy1 (chicken), BiFC fusion (chicken) (UniProt Q5ZJC3)
Test: split reporter; COS-7 cells on coverslips transfected with pExp-VN173 and pExp-VC155 fusion vectors (500 ng each), fixed 24 to 31 h after transfection. Where indicated the cells were treated with the proteasome inhibitor MG132. Counted positive at 3 times or more the fluorescence of the 3 control conditions.

- binding: binds
Substance: Hoxa2 (chicken), BiFC fusion (from UniProt Q08727 1-375)
